Common to all, as to test: cells
Experiment [1] relates to HUH7 cells. The settings on record: Homo sapiens, Huh-7, 72 h, read-out: antiproliferative IC50.
For experiment [2], the system named is MDA-MB-231 cells. The settings on record: Homo sapiens, MDA-MB-231, 72 h, read-out: antiproliferative IC50.
Experiment [3] deals with T24 cells. The settings on record: Homo sapiens, T-24, 72 h, read-out: antiproliferative IC50.

Molecules are shown by their SMILES.

For the compound `O=C(CCCCCCC(=O)Nc1ccccc1)NO` [SAHA, suberoylanilide hydroxamic acid], the figures for the IC50 in experiment [1], in experiment [2] and in experiment [3] were 1200 nM, 2800 nM and 2400 nM, respectively.

(Values after PMC6519732 (Journal of medicinal chemistry, 2019).)
